According to PubChem BioAssay AID2071 (Sanford-Burnham Center for Chemical Genomics, 2009):
The other results are listed elsewhere or left out.

experiment: NALP1 inflammasome inhibitors in reconstituted yeast, colorimetric, S. cerevisiae, triplicate retest (AID 2071); settings: S. cerevisiae NALP1/ASC/caspase-1 growth, X-gal OD620, 72 h, at 20 µM, stronger effect = higher value

| SMILES | inhibition [%] |
| --- | --- |
| CC(=O)NC(SC(=S)N(C)C)C(Cl)(Cl)Cl (stereo not drawn) | 113 |
| O=C(OC1CN2CCC1CC2)C12CC3CC(CC(C3)C1)C2 (stereo not drawn) | 22.1 |
| O=[N+]([O-])c1cc([N+](=O)[O-])c(-c2ccn[nH]2)s1 | 39.9 |
